PubChem BioAssay AID1259415 (National Center for Advancing Translational Sciences (NCATS), 2018)
Several values for one entry are separate records, joined by “and”; a condition that tells them apart may be missing. Equal entries are not always repeated. Screen size: about 410,000 compounds; about 18,000 (4.4%) were called active. Inconclusive means that the source gave no clear call. Such entries were picked first, then a sample of the others. No stated cut-off is given here; in the data, active means activity change below about -60%; inconclusive means no clear call, values can overlap the other calls; inactive means above about -39%.
On the % scale 0 is the no-effect control and ±100 the full control effect.

Assay: qHTS Assay for inhibitors of the human cytomegalovirus (HCMV)
Conditions: HFF cells, HCMV-luciferase reporter, 72 h; at 57.5 µM; stronger effect = lower value
Outline: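 Luciferase read-out from HCMV-luciferase-infected HFFs (MOI 1 PFU/cell) 72 h post infection at 37C; compounds added after 16 h cell attachment; activity normalized between buffer-only basal and Salinomycin (10uM) inhibitor controls.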
With CCOc1ccc(-n2c(C)nnc2SCC(=O)N(CC)CC)cc1 the activity change, negative = inhibition was inconclusive: -59.4%. With N#Cc1c(-n2ncnc2-c2ccccc2C(F)(F)F)sc2c1CCCCC2 the activity change, negative = inhibition was active: -69%. For O=C(CCCCC(=O)NN=Cc1ccc(Cl)cc1)NN=Cc1ccc(Cl)cc1, the activity change, negative = inhibition was inactive: 5.16%. With Cc1ccc(NCc2cccn2-c2nnc(N3CCC(C(=O)NCCC(C)C)CC3)s2)cc1 the activity change, negative = inhibition was active: -67.5%. In the case of COc1ccc(C(NC(=O)c2ccc(-c3ccccc3)cc2)c2ccccc2)cc1 (stereo not given), the activity change, negative = inhibition is reported as active: -66.2%. For CCOC(=O)c1ccc(Nc2c(-c3cccc(O)c3)nc3nc[nH]n23)cc1, the activity change, negative = inhibition was inactive: 21.9%. For Nc1c(C(=O)Nc2ccc(S(=O)(=O)N3CCCC3)cc2)sc2nc3cc4c(cc3cc12)CCC4, the activity change, negative = inhibition was inconclusive: -47.3%. With COc1ccc2c(c1OC)C(=O)N1C2SC[C@H]1C(=O)NCCC(C)C (stereo not given in full) the activity change, negative = inhibition was inconclusive: -42%. In the case of Cc1ccc(S(=O)(=O)NCc2ccc(C(=O)NCCN(Cc3ccccc3)C(C)C)cc2)cc1, the activity change, negative = inhibition is reported as inconclusive: -44.8%. In the case of Cc1cc(C)c(C(N)=O)c(SCC(=O)c2cc(C)n(-c3cc(C)on3)c2C)n1, the activity change, negative = inhibition is reported as inconclusive: -50.9%. In the case of O=C(Nc1cc([N+](=O)[O-])c2[nH]c(=O)c3ccccc3c2c1)C(F)(F)F, the activity change, negative = inhibition is reported as inconclusive: -53.5%. With Cc1ccc(/C([O-])=C(/C(=S)Nc2ccc(SC(F)F)cc2)[n+]2ccccc2)cc1[N+](=O)[O-] the activity change, negative = inhibition was inconclusive: -43.7%. In the case of COc1ccc(C(=O)Nc2ccc(C3(C#N)CCCC3)cc2)cc1, the activity change, negative = inhibition is reported as active: -75.3%. For CN(C(=O)c1ccc(NC(=O)Cc2ccc(NC(=O)C3CCCN(C(=O)CCc4ccccc4)C3)cc2)cc1)C1CCCC1 (stereo not given), the activity change, negative = inhibition was inconclusive: -45.9%. With Cn1c(=O)oc2cc(S(=O)(=O)N3CCCC(C(=O)NCc4ccc5c(c4)OCO5)C3)ccc21 (stereo not given) the activity change, negative = inhibition was inconclusive: -58.7%. With Clc1ccc(-c2cnc3n2CCCCC3)cc1 the activity change, negative = inhibition was inconclusive: -43.4%. With N#C/C(=N\Nc1cccc(Cl)c1)C(=O)c1ccccc1 the activity change, negative = inhibition was active: -86.7%. In the case of CC(Oc1ccc(Cl)cc1)C(=O)Nc1sccc1C(N)=O (stereo not given), the activity change, negative = inhibition is reported as inconclusive: -53.5%. For Cc1onc(-c2c(F)cccc2Cl)c1C(=O)Nc1sc2c(c1C(N)=O)CCC2, the activity change, negative = inhibition was active: -74.2%. With Cc1[nH]c(SCC(=O)Nc2cc(S(C)(=O)=O)ccc2Cl)nc1Cc1ccccc1 the activity change, negative = inhibition was inactive: -17.8%. In the case of CCOC(=O)c1cccc(NC(=O)Nc2cc(OC)ccc2OC)c1, the activity change, negative = inhibition is reported as inconclusive: -40.7%. For COc1ccc2ccc(O)c(CN3CCN(S(=O)(=O)c4cccc(C(F)(F)F)c4)CC3)c2c1, the activity change, negative = inhibition was inconclusive: -44.4%. With CCc1cccc(CC)c1NC(=O)CSc1nc2ccc(N3C(=O)C4C5C=CC(C5)C4C3=O)cc2s1 (stereo not given) the activity change, negative = inhibition was inconclusive: -52.1%. For O=C(c1ccc([N+](=O)[O-])o1)N1CCN(c2nc3c(Cl)cccc3s2)CC1, the activity change, negative = inhibition was inconclusive: -45.7%. In the case of CCOc1ccc(S(=O)(=O)NC2CCCCC2C)cc1 (stereo not given), the activity change, negative = inhibition is reported as inactive: -5.23%. For COc1ccccc1NC(=O)c1ccc(NC(=O)c2ccco2)cc1, the activity change, negative = inhibition was inconclusive: -49.7%. With O=C(NCc1nc2ccccc2[nH]1)C1=C[C@H](c2csc3ccccc23)C[C@H](OCc2ccc(CO)cc2)O1 the activity change, negative = inhibition was active: -61.8%. With CCS(=O)(=O)c1ccc(N=Nc2ccc(O)c3ncccc23)c(OC)c1 the activity change, negative = inhibition was active: -92.1%. For COc1ccc(Cc2c(-c3cccc(Cl)c3)nc3c(C)cc(Br)cn23)c(C)c1, the activity change, negative = inhibition was inconclusive: -59.6%. With CC1=NN(c2nc(-c3ccc(C)cc3)cs2)C(=O)C1N=Nc1cccc(C)c1 (stereo not given) the activity change, negative = inhibition was inconclusive: -40.9%. For Fc1ccc(Cn2nnnc2C(c2ccc(Cl)cc2)N2CCSCC2)cc1 (stereo not given), the activity change, negative = inhibition was inactive: -16.3%. In the case of CC1(C)N=C(N)N=C(N)N1c1ccc(OCC(=O)Nc2ccccc2)c(Cl)c1, the activity change, negative = inhibition is reported as active: -95%. With O=C(NCc1ccc(F)cc1)c1cnc(Cl)c(Cl)c1 the activity change, negative = inhibition was inconclusive: -57.2%. With CCOC(=O)c1c(S(=O)(=O)N2CCCC(C)C2)c(C)n(C)c1C (stereo not given) the activity change, negative = inhibition was inconclusive: -41%. In the case of N#CC1c2ccccc2-n2nncc2CN1Cc1cc(Cl)cc(Cl)c1 (stereo not given), the activity change, negative = inhibition is reported as active: -99.6%. In the case of COc1ccc(OC)c(CNn2c(-c3cccc(C)c3)nc3ccccc3c2=O)c1, the activity change, negative = inhibition is reported as inconclusive: -49.6%. In the case of Cc1ccsc1/C=N/NC(=O)C1C(=O)NCC1c1ccccc1 (stereo not given), the activity change, negative = inhibition is reported as inconclusive: -44.4%. For O=C(NCCCN1CCN(c2cccc(Cl)c2)CC1)c1nnc(Cc2ccc(F)cc2Cl)o1, the activity change, negative = inhibition was inactive: -14.1%. In the case of CCC1(O)c2ccccc2-c2ncccc21 (stereo not given), the activity change, negative = inhibition is reported as inactive: 33.9%. With C#CCOc1ccccc1CNC1CCN(Cc2ccccc2)CC1 the activity change, negative = inhibition was inconclusive: -42.4%. In the case of Cc1ccccc1NC1=C/C(=N\S(=O)(=O)c2cccs2)c2ccccc2C1=O, the activity change, negative = inhibition is reported as active: -106%. With COc1ccccc1/C=C/C(=O)NCC(=O)N/N=C/c1cccnc1 the activity change, negative = inhibition was inconclusive: -49.1%. In the case of O=C(CCS(=O)(=O)c1nc(-c2cccs2)cc(C(F)(F)F)n1)Nc1cccc(O)c1, the activity change, negative = inhibition is reported as active: -99.4%. With On1c(-c2ccccc2)nc2ccc(Cl)cc21 the activity change, negative = inhibition was inactive: 47.9%. With C=C1C(=O)O[C@@H]2C[C@@H](C)[C@@H]3C=CC(=O)[C@@]3(C)[C@@H](O)[C@H]12 the activity change, negative = inhibition was active: -99.9%. With CCC(C)c1ccccc1NC(=O)C(C)N(C)Cc1cccc(OC)c1 (stereo not given) the activity change, negative = inhibition was inconclusive: -46.8%. For CC12CCC(/C(=C/NNc3ccc([N+](=O)[O-])cc3[N+](=O)[O-])C1=O)C2(C)C (stereo not given), the activity change, negative = inhibition was inconclusive: -56.9%. With COCCN1Cc2cccc(C(=O)NCc3cccs3)c2C1=O the activity change, negative = inhibition was inconclusive: -47.9%. For COc1ccc(CCNc2cc(-c3ccccc3)nc3ncnn23)cc1, the activity change, negative = inhibition was inconclusive: -55.7%. With CSc1ccccc1NC(=O)CO/N=C(\C)c1cc2ccccc2o1 the activity change, negative = inhibition was inconclusive: -48.8%. In the case of Cc1nc2ccccc2c2c1CC(C(C)(Cl)Br)O2 (stereo not given), the activity change, negative = inhibition is reported as active: -92.5%. In the case of O=C(CCN1C(=O)c2cccc3cccc(c23)C1=O)NCc1cccnc1, the activity change, negative = inhibition is reported as inconclusive: -42.2%. For CCc1ccc(-n2nc(CO)c(C(=O)NCCCCc3ccccc3)n2)cc1, the activity change, negative = inhibition was inactive: -24.2%. For CC(CCc1ccccc1)NCC(O)c1ccc(O)c(C(N)=O)c1 (stereo not given), the activity change, negative = inhibition was inactive: -30.5%. For CN(C(=O)C(C)(C)C)c1ccc(OCC(=O)N2CCc3ccccc3C2)cc1, the activity change, negative = inhibition was active: -81.7%. For CC1CCN(S(=O)(=O)c2ccc3ncn(CC(=O)N(C)C4CCCCC4)c(=O)c3c2)CC1, the activity change, negative = inhibition was inconclusive: -47.4%. For C[N+](C)(C)CC#CCOC(=O)Nc1cccc(Cl)c1, the activity change, negative = inhibition was inconclusive: -59.4%. In the case of O=C(CCNC(=O)c1ccco1)Nc1ccccc1N1CCOCC1, the activity change, negative = inhibition is reported as inactive: -7.39%. For COc1cccc(N2CCN(C(=O)CCCCCNc3nc(=S)[nH]c4ccccc34)CC2)c1, the activity change, negative = inhibition was active: -62.3%. For CC1(Cc2ccc3c(c2)OCO3)C(=O)Nc2c(Cl)ccc(Cl)c21 (stereo not given), the activity change, negative = inhibition was active: -68.4%. In the case of CCN(CC)CCCN(C(C)=O)c1nc(-c2cc(OC)ccc2OC)cs1, the activity change, negative = inhibition is reported as inconclusive: -44.4%. For O=C(COc1ccc(S(=O)(=O)NC2CCCCC2)cc1Cl)N1CCN(c2ccccc2)CC1, the activity change, negative = inhibition was inconclusive: -41%. In the case of Cc1ccc(C(=O)N2c3ccccc3Sc3ccccc32)cc1, the activity change, negative = inhibition is reported as inconclusive: -49.5%. With COc1cccc(C(=O)NNC(=O)c2cccc3ccccc23)c1 the activity change, negative = inhibition was inconclusive: -53.6%. In the case of COc1ccc(/C=N/NC(=S)Nc2cc(S(=O)(=O)N3CCOCC3)ccc2N2CCOCC2)cc1O, the activity change, negative = inhibition is reported as inactive: -30.3%. In the case of CC1(C)C[C@@H]2C[C@@](C)(CN2C(=O)c2cc(COc3cccc(C(F)(F)F)c3)on2)C1, the activity change, negative = inhibition is reported as inconclusive: -40.4%. For Cc1ccc(S(=O)(=O)N2CCN(C(=O)COC(=O)c3cc([N+](=O)[O-])ccc3NCCO)CC2)c(C)c1, the activity change, negative = inhibition was inconclusive: -58.2%. For COc1ccccc1C1C(C#N)=C(N)Oc2c1c(-c1ccccc1)nn2-c1ccccc1 (stereo not given), the activity change, negative = inhibition was inconclusive: -46%. In the case of COc1ccccc1NC(=O)C1CCN(c2ncnc3c2nc2n3CCCCC2)CC1, the activity change, negative = inhibition is reported as inactive: 55.8% and inactive: -4.2%. In the case of CCN(CC)C(=O)C1CCCc2c1[nH]c1ccc(Cl)cc21 (stereo not given), the activity change, negative = inhibition is reported as inactive: 0.869%. With O=C1CC(c2ccccc2)=Nc2ccc(Br)cc2N1 the activity change, negative = inhibition was active: -68.5%. In the case of CC(=O)Nc1ccc(-c2csc(NNC(=O)c3ccccc3)n2)cc1, the activity change, negative = inhibition is reported as inconclusive: -59.2%. In the case of CC(C)Nc1nc(Nc2ccc(Cl)cc2F)c2sccc2n1, the activity change, negative = inhibition is reported as inconclusive: -40.2%. With CCOc1ccc(C(=O)c2cn(CC(=O)Nc3ccc(C)c(C)c3)c3ccc(OCC)cc3c2=O)cc1 the activity change, negative = inhibition was inactive: 3.78%. In the case of CCOC1(OCC)C(c2ccc(Cl)cc2)C(C#N)(C#N)C1(OCC)OCC (stereo not given), the activity change, negative = inhibition is reported as inconclusive: -53%. In the case of Nc1ccccc1C(=O)NNc1ncc(C(F)(F)F)cc1Cl, the activity change, negative = inhibition is reported as inconclusive: -42.8%. In the case of CC(C)C(C(=O)Nc1nccs1)c1ccccc1 (stereo not given), the activity change, negative = inhibition is reported as inconclusive: -46%. In the case of COc1cccc(NC(=O)Nc2nc(SC)ns2)c1, the activity change, negative = inhibition is reported as inconclusive: -48.5%. With COc1ccc(S(=O)(=O)N2c3cc(C)ccc3OCC2C(C)(C)C)cc1 (stereo not given) the activity change, negative = inhibition was inconclusive: -50.2%. In the case of O=C(NCc1ccccc1F)c1ccc(S(=O)(=O)N2CCCCCC2)cc1, the activity change, negative = inhibition is reported as inconclusive: -43.2%. With Cc1cc(C)n(-c2nc3ccccc3c(=O)n2OCC(=O)OCc2ccccc2)n1 the activity change, negative = inhibition was inconclusive: -44.7%. For COc1cc(C2CC(=O)c3cnc(NC(=O)c4ccco4)nc3C2)cc(OC)c1OC (stereo not given), the activity change, negative = inhibition was inactive: -2.71%. For O=C1NC(=S)NC1=Cc1ccc(Cl)cc1Cl, the activity change, negative = inhibition was inconclusive: -45.7%. For CC(C)NC(=O)CC(=O)N/N=C\c1ccccc1C(=O)O, the activity change, negative = inhibition was inconclusive: -40.1%. In the case of CSc1nc(N2CCN(c3ccccc3Cl)CC2)c2ccccc2n1, the activity change, negative = inhibition is reported as inconclusive: -46.1%.
